Results on two sequences are retold here after PMC9239096.

The subject of the series is T1, KdpE-MBP (Sinorhizobium fredii CCBAU45436 (SF4)).
T1 sequence (looked up): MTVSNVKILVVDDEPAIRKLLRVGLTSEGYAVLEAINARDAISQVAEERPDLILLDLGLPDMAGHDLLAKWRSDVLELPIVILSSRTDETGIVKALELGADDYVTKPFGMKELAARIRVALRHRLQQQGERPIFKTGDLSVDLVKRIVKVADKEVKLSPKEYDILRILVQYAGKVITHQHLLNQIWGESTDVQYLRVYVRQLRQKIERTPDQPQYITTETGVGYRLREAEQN
Nature of the series: EMSA. Particulars: 5-50 uM protein, 12.3 nM probe; 25 mM Tris-HCl pH 8.0, 0.5 mg/mL BSA, 0.1 mg/mL sonicated salmon sperm DNA, 5% glycerol, 0.05% DDM; 10 uL, 20 C, 30 min; 6% native PAGE; recombinant protein; residues 1-232; protein details: MBP (pMAL-c5x, N-terminal, with GGGGS linker); label: Cy5 (5' end, primer); probe letters rebuilt from the primers and the genome.

Negatives hold for the conditions tested. Protein sequences can lack the tags named with them.

Take “GCGGCCGCCTTTTGAAGGACGAACCATGAGGGATTGAAACGATCAGCCGCCACAGGATTTCCACAATGCCGATTCATCTGATGCAGACTTCCGCCCCACGACATCTCCGCTTGGTCGTCGTCAGGACAGAAATCTCCGGCGAGGAGCGCTCTGCACCTGCCTCTGCGCGAGCGGCAAGGCATATGGCGCAACGCCCGGCTAAAATCAATGCTTCTTGCGCATGCCGACCTCGGCGGCACCTCACGTCTCGTTCCGAACGGGGCCGGACCCTACTTCAAAATTCCCGCAAGCGGTATGCTCTTGTGAAAGAAAAGCATGGGCTCCAAAGGCGACGCACCGAGGGTC (double strand) [Probe_kup]”: the binding result is “no binding”.
As for “GGCTGTTTTTTCCTTGGCTCCGGCGATTGCGTCCTCTCCGCTGCGCGAAGGCCCGTTTGGCACACGTTAAACGGGCTGCATCATCTTATTCCTTCTTCAACTACGATCAAAGGAACCAACAAGTTTCGGCGCAGTTTCCTGGTGATGCGCAGCGCTTCGACACGAATTTTCCGATATTTCAGTTGCATCCGATGGACGCTTTGAACGATGTAATGAGCCGGACTCGCCCGGCGGGCATGCGACCCGGCGACACCCTTGCGGGATTGCGCTTCTCGTGGCGCTGGCGCGGGTTCTTTCGACAGCGCCGTGCGTCTTTTCAGGCGAAAGGTCGCTGTCGCACTTGATCTGCTGCATGCTCTCATTCCTTAGATCGATTCCGATTTAAGGAAACAGGCAGCAGGGCCCTCGTTCGACCCGTGTTGCTCCAGGTATTGCCC (double strand) [Probe_trk]”, the entry is “no binding”.
